This is an account of results in patent US20170129926A1 (ABCLON, published 2017).

The chains behind the UniProt entries cited, without tags or fusion partners. Residues count along the entry.
UniProt P05231, 30-212 limits assumed: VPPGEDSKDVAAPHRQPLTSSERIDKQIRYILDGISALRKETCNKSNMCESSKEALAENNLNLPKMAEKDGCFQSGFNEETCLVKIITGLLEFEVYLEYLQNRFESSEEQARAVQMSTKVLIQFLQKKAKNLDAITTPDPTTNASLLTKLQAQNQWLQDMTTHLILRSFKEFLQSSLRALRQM

Where two headings read alike, the source gives them in different places.

Test [1] deals with T1, human IL-6 (human, UniProt P05231 30-212). The test can be described thus: cell-based or functional assay.
Test [2] deals with T1, human IL-6. The test is described as follows: cell-based or functional assay. This is another data set of the same source.
Test [3] deals with T1, human IL-6. The test can be described thus: competition ELISA: blocking of preformed hIL-6/hIL-6Rα binding to hgp130.
For test [4], the target named is T1, human IL-6. The test is described as follows: SPR (ProteOn), Z variant immobilized, hIL-6 analyte, 1:1 model. The protocol: The immobilization was performed using amine coupling chemistry according to the manufacturer's recommendations and PBST 0.05% was used as running buffer. PBST 0.05% was also used as running buffer in the kinetic experiment using a flow rate was 60 μl/min. […] After dissociation, the surfaces were regenerated with HCl supplemented with 0.05% Tween 20. Kinetic constants were calculated from the sensorgrams using a 1:1 model in Bio-Rad manager Software (Bio-Rad).

Test [5] deals with T1, human IL-6. The test is described as follows: competition ELISA: blocking of pre-mixed hIL-6/hIL-6Rα binding to coated hgp130-Fc. The method, then:
In this experiment, half area 96-well ELISA plates were coated with Fc-fused hgp130 (hgp130-Fc) at a concentration of 4 μg/ml. Plates were incubated overnight at 4° C. and then washed twice in tap water. Next, the plates were blocked for 1 h in PBSC. Plates were incubated for 1.5 h at RT and then washed 4 times with 200 μl 0.05% Tween/PBS.
Plates were incubated for 1.5 h and then washed 4 times. A biotinylated anti-IL-6Rα antibody (R&D Systems) was added and the plates were incubated for another 1.5 h followed by washing. A 1:8000 dilution of streptavidin-HRP (Thermo Scientific) was added and the plates were incubated for 1 h.

B1: Z06829-ABD (designed binder)
chain: MGSSLQVDAKYAKEEQRAWTEIHVLPNLTVSQMSAFISKLFDDPSQSSELLSEAKKLNDSQAPKVDGSLAEAKEAANAELDSYGVSDFYKRLIDKAKTVEGVEALKDAILAALP
Consider B1, for which, in the test with human IL-6 [1], the “IC50, IL-6 dependent growth of TF-1 cells” value (“IC50, IL-6 dependent growth” below) came out at 15 nM.

B2: His6-Z14700 (designed binder)
chain: MGSSHHHHHHLQVDAKYAKEERHAWFEIHKLPNLTVDQMAAFITKLFDDPSQSSELLSEAKKLNDSQAPKVD
Broadly, the IC50 is the point on the concentration scale where inhibition reaches its midpoint. Take B2: the “IC50, IL-6 dependent growth” value with human IL-6 [2] was determined as 100 pM. In the test with human IL-6 [3], this molecule gave a half-inhibitory concentration (IC50) of less than 1.6 nM.

B3: His6-Z14712 (designed binder)
chain: MGSSHHHHHHLQVDAKYAKEEYLAWNEIHKLPNLTVDQMAAFITKLFDDPSQSSELLSEAKKLNDSQAPKVD
As for B3, the “IC50, IL-6 dependent growth” value with human IL-6 [2] stood at 220 pM. The molecule also came in with a half-inhibitory concentration (IC50) with human IL-6 [3] of less than 1.6 nM.

B4: His6-Z15122 (designed binder)
chain: MGSSHHHHHHLQVDAKYAKEERHAWYEIHLLPNLTIDQMAAFISKLFDDPSQSSELLSEAKKLNDSQAPKVD
By Kd is commonly meant a measure of binding affinity in units of concentration. In general, koff refers to the rate constant with which the complex falls apart. As a reminder, the kon is the rate constant with which the complex forms. On to B4, for which, in the test with human IL-6 [2], the “IC50, IL-6 dependent growth” value worked out at 85 pM. In the test with human IL-6 [4], the Kd is 0.12 nM, the koff turned out to be 3.9e-05 s⁻¹ and the kon is 310000 M⁻¹ s⁻¹. The same molecule displayed a concentration for half-maximal inhibition (IC50) with human IL-6 [3] of less than 1.6 nM.

B5: His6-Z14976 (designed binder)
chain: MGSSHHHHHHLQVDAKYAKEERKAWYEIHLLPNLTVEQMAAFITKLFDDPSQSSELLSEAKKLNDSQAPKVD
notes: also called Z014976
Regarding B5, in the test with human IL-6 [2], the “IC50, IL-6 dependent growth” value came to 42 pM. In the test with human IL-6 [4], the Kd was 0.088 nM, the dissociation rate constant (koff) is 2.7e-05 s⁻¹ and the kon was found to be 310000 M⁻¹ s⁻¹. In the test with human IL-6 [3], this molecule had an IC50 of less than 1.6 nM.

B6: His6-Z14630 (designed binder)
chain: MGSSHHHHHHLQVDAKYAKEEKFAWWEIHKLPNLTVDQVAAFITKLFDDPSQSSELLSEAKKLNDSQAPKVD
Take B6: the “IC50, IL-6 dependent growth” value with human IL-6 [2] is 87 pM. This molecule also displayed an IC50 in the test with human IL-6 [3] of less than 1.6 nM.

B7: His6-Z14862 (designed binder)
chain: MGSSHHHHHHLQVDAKYAKEEAAAWREIHLLPNLTIDQMAAFITKLFDDPSQSSELLSEAKKLNDSQAPKVD
Regarding B7, the “IC50, IL-6 dependent growth” value in the test with human IL-6 [2] was 430 pM. The half-inhibitory concentration (IC50) in the test with human IL-6 [3] is less than 1.6 nM.

B8: His6-Z14861 (designed binder)
chain: MGSSHHHHHHLQVDAKYAKEERKAWIEIHNLPNLTIDQMAAFITKLFDDPSQSSELLSEAKKLNDSQAPKVD
Turning to B8, the “IC50, IL-6 dependent growth” value with human IL-6 [2] is 190 pM. In the test with human IL-6 [4], this molecule displayed an equilibrium dissociation constant (Kd) of 0.17 nM, a koff of 6.3e-05 s⁻¹ and a kon of 360000 M⁻¹ s⁻¹. This molecule also had a 50% inhibitory concentration (IC50) with human IL-6 [3] of less than 1.6 nM.

B9: His6-Z06777 (designed binder)
chain: MGSSHHHHHHLQVDAKYAKEERKAWFEIHLLPNLTTQQRSAFISKLFDDPSQSSELLSEAKKLNDSQAPKVD
In the case of B9, in the test with human IL-6 [1], the “IC50, IL-6 dependent growth” value amounted to 72 nM. Besides, the IC50 with human IL-6 [5] came out at 46 nM.

B10: His6-Z15142 (designed binder)
chain: MGSSHHHHHHLQVDAKYAKEERMAWYEIHSLPNLTVDQMAAFITKLFDDPSQSSELLSEAKKLNDSQAPKVD
For the molecule B10, in the test with human IL-6 [2], the “IC50, IL-6 dependent growth” value was determined as 510 pM. In the test with human IL-6 [3], this molecule registered an IC50 of less than 1.6 nM.

B11: His6-Z15015 (designed binder)
chain: MGSSHHHHHHLQVDAKYAKEERDAWWEIHALPNLTVEQMAAFITKLFDDPSQSSELLSEAKKLNDSQAPKVD
In the case of B11, in the test with human IL-6 [2], the “IC50, IL-6 dependent growth” value came to 27 pM. In the test with human IL-6 [4], this molecule displayed a Kd of 0.17 nM, a koff of 7.2e-05 s⁻¹ and an on-rate (kon) of 430000 M⁻¹ s⁻¹. This molecule displayed an IC50 with human IL-6 [3] of less than 1.6 nM.

B12: His6-Z14984 (designed binder)
chain: MGSSHHHHHHLQVDAKYAKEEKQAWREIHLLPNLTIDQMAAFITKLFDDPSQSSELLSEAKKLNDSQAPKVD
Turning to B12, in the test with human IL-6 [2], the “IC50, IL-6 dependent growth” value was 270 pM. In the test with human IL-6 [4], binding was put at a Kd of 0.25 nM, the koff was found to be 7.4e-05 s⁻¹ and the kon came to 300000 M⁻¹ s⁻¹. This molecule displayed an IC50 in the test with human IL-6 [3] of less than 1.6 nM.

B13: His6-Z06834 (designed binder)
chain: MGSSHHHHHHLQVDAKYAKEQHQAWNEIHLLPNLTVNQMAAFIVKLFDDPSQSSELLSEAKKLNDSQAPKVD
As to B13, in the test with human IL-6 [1], the “IC50, IL-6 dependent growth” value came to 61 nM. Besides, the half-inhibitory concentration (IC50) with human IL-6 [5] was found to be 53 nM.

B14: His6-Z06789 (designed binder)
chain: MGSSHHHHHHLQVDAKYAKEERQAWWEIHSLPNLTVDQMAAFIVKLMDDPSQSSELLSEAKKLNDSQAPKVD
As for B14, the “IC50, IL-6 dependent growth” value with human IL-6 [1] came out at 8.6 nM. The IC50 in the test with human IL-6 [5] was 6.2 nM.

B15: His6-Z06791 (designed binder)
chain: MGSSHHHHHHLQVDAKYAKEQAKAWWEIHVLPNLTVHQVAAFITKLFDDPSQSSELLSEAKKLNDSQAPKVD
On to B15, for which, in the test with human IL-6 [1], the “IC50, IL-6 dependent growth” value amounted to 5.2 nM. This molecule also gave an IC50 with human IL-6 [5] of 23 nM.

B16: His6-Z06792 (designed binder)
chain: MGSSHHHHHHLQVDAKYAKEERDAWHEIQILPNLTITQMAAFISKLFDDPSQSSELLSEAKKLNDSQAPKVD
Regarding B16, the “IC50, IL-6 dependent growth” value with human IL-6 [1] was 53 nM. Further, the half-inhibitory concentration (IC50) in the test with human IL-6 [5] was found to be 17 nM.

B17: His6-Z06802 (designed binder)
chain: MGSSHHHHHHLQVDAKYAKETQHAWWEIHKLPNLTVSQMAAFITKLFDDPSQSSELLSEAKKLNDSQAPKVD
Take B17: the “IC50, IL-6 dependent growth” value with human IL-6 [1] amounted to 43 nM. Further, in the test with human IL-6 [5], the half-maximal inhibitory concentration (IC50) came to 27 nM.

B18: His6-Z06809 (designed binder)
chain: MGSSHHHHHHLQVDAKYAKEERDAWREIHALPNLTVDQLVAFITKLFDDPSQSSELLSEAKKLNDSQAPKVD
Turning to B18, the “IC50, IL-6 dependent growth” value with human IL-6 [1] was 20 nM. The molecule also came in with a half-maximal inhibitory concentration (IC50) with human IL-6 [5] of 3.3 nM.

B19: His6-Z15036 (designed binder)
chain: MGSSHHHHHHLQVDAKYAKEEYEAWFEIHALPNLTVEQMAAFITKLFDDPSQSSELLSEAKKLNDSQAPKVD
With B19, in the test with human IL-6 [2], the “IC50, IL-6 dependent growth” value turned out to be 180 pM. For the same molecule, the IC50 with human IL-6 [3] is less than 1.6 nM.

B20: His6-Z06779 (designed binder)
chain: MGSSHHHHHHLQVDAKYAKEERSAWFEIHTLPNLTVQQIAAFIWKLYDDPSQSSELLSEAKKLNDSQAPKVD
On to B20, for which the “IC50, IL-6 dependent growth” value in the test with human IL-6 [1] came out at 30 nM. The 50% inhibitory concentration (IC50) with human IL-6 [5] worked out at 36 nM.

B21: His6-Z06805 (designed binder)
chain: MGSSHHHHHHLQVDAKYAKEDRTAWWEIHKLPNLTAEQMAAFITKLFDDPSQSSELLSEAKKLNDSQAPKVD
With B21, in the test with human IL-6 [1], the “IC50, IL-6 dependent growth” value turned out to be 77 nM. In the test with human IL-6 [5], this molecule came in with an IC50 of 42 nM.

B22: His6-Z15126 (designed binder)
chain: MGSSHHHHHHLQVDAKYAKEERNAWYEIHLLPNLTVEQMAAFITKLFDDPSQSSELLSEAKKLNDSQAPKVD
In the test with human IL-6 [3], B22 showed an IC50 of less than 1.6 nM.

B23: His6-Z06829 (designed binder)
chain: MGSSHHHHHHLQVDAKYAKEEQRAWTEIHVLPNLTVSQMSAFISKLFDDPSQSSELLSEAKKLNDSQAPKVD
For the molecule B23, in the test with human IL-6 [1], the “IC50, IL-6 dependent growth” value was determined as 28 nM. Moreover, the IC50 in the test with human IL-6 [5] turned out to be 11 nM.

B24: His6-Z06799 (designed binder)
chain: MGSSHHHHHHLQVDAKYAKEEQRAWTEIHVLPNLTVQQMAAFITKLFDDPSQSSELLSEAKKLNDSQAPKVD
On to B24, for which, in the test with human IL-6 [1], the “IC50, IL-6 dependent growth” value was 3.9 nM. The concentration for half-maximal inhibition (IC50) with human IL-6 [5] was found to be 3.7 nM.

B25: His6-Z11632 (designed binder)
chain: MGSSHHHHHHLQVDAKYAKEEREAWFEIHTLPNLTVSQMAAFISKLFDDPSQSSELLSEAKKLNDSQAPKVD
As for B25, the “IC50, IL-6 dependent growth” value with human IL-6 [2] worked out at 120 pM. In addition, the half-inhibitory concentration (IC50) with human IL-6 [3] was less than 1.6 nM.

B26: His6-Z15110 (designed binder)
chain: MGSSHHHHHHLQVDAKYAKEERRAWTEIHSLPNLTIDQMAAFITKLFDDPSQSSELLSEAKKLNDSQAPKVD
In the case of B26, in the test with human IL-6 [2], the “IC50, IL-6 dependent growth” value was found to be 930 pM. In the test with human IL-6 [3], the 50% inhibitory concentration (IC50) is less than 1.6 nM.

B27: His6-Z06844 (designed binder)
chain: MGSSHHHHHHLQVDAKYAKEEHAAWLEIHLLPNLTVKQMAAFIGKLMDDPSQSSELLSEAKKLNDSQAPKVD
Turning to B27, the “IC50, IL-6 dependent growth” value in the test with human IL-6 [1] came out at 110 nM. The IC50 with human IL-6 [5] was 87 nM.
